Values from PubChem BioAssay AID1159584 (Peter MacCallum Cancer Centre, 2016).
Shown is an unselected part of about 18,000 reagents tested. Not all columns of the deposit are shown. Not stated in the record: the amount of reagent, the time to read-out.

Screen: 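Knock-downs that harm CDH1-null cells more than parental MCF10A cells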 (primary screen)
Cells: human MCF10A breast epithelial cells, parental and CDH1-null
Reagent: siRNA against human genes
Read-out: 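ATP luminescence (CellTiter-Glo) viability per line relative to mean mock wells over all plates, and the ratio of CDH1-null to parental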
Scale: CDH1-null / parental viability ratio: higher = CDH1-null cells survive relatively better than parental

gene knocked down | CDH1-null / parental viability ratio
TGFB1 (transforming growth factor beta 1) | 0.74
NEUROD4 (neuronal differentiation 4) | 1.04
PER3 (period circadian regulator 3) | 0.98
WASF1 (WASP family member 1) | 0.92
EI24 (EI24 autophagy associated transmembrane protein) | 1.45
ZFP69B (ZFP69 zinc finger protein B) | 1.06
SYVN1 (synoviolin 1) | 0.96
SLC18A3 | 0.89
CMPK2 (cytidine/uridine monophosphate kinase 2) | 0.86
NRBP2 (nuclear receptor binding protein 2) | 0.92
CBARP (CACN subunit beta associated regulatory protein) | 1.2
PIKFYVE (phosphoinositide kinase, FYVE-type zinc finger containing) | 0.87
PGLS (6-phosphogluconolactonase) | 1.37
ANKS1A (ankyrin repeat and sterile alpha motif domain containing 1A) | 1.24
P2RX6 (purinergic receptor P2X 6) | 1.29
OR2A14 (olfactory receptor family 2 subfamily A member 14) | 1.25
LY96 (lymphocyte antigen 96) | 1.09
TMEM106C (transmembrane protein 106C) | 1.15
ZNF655 (zinc finger protein 655) | 1.04
BTBD2 (BTB domain containing 2) | 1.02
CARNMT1 (carnosine N-methyltransferase 1) | 0.83
COMP (cartilage oligomeric matrix protein) | 1.28
WSCD2 (WSC domain sialate O sulfotransferase 2) | 0.83
SCNN1G (sodium channel epithelial 1 subunit gamma) | 1.04
BOLA3 (bolA family member 3) | 0.86
CYP2R1 (cytochrome P450 family 2 subfamily R member 1) | 0.74
KCTD1 (potassium channel tetramerization domain containing 1) | 1.13
MAP3K3 (mitogen-activated protein kinase kinase kinase 3) | 0.82
LCMT1 (leucine carboxyl methyltransferase 1) | 0.98
CEMP1 (cementum protein 1) | 1.07
ESRRB (estrogen related receptor beta) | 1.18
ELN (elastin) | 0.83
QSOX1 (quiescin sulfhydryl oxidase 1) | 1.1
KDM1B (lysine demethylase 1B) | 0.7
KRTAP6-2 (keratin associated protein 6-2) | 0.91
SLC30A6 | 1.06
RLF (RLF zinc finger) | 0.89
TNFRSF12A (TNF receptor superfamily member 12A) | 1.05
WNT3 (Wnt family member 3) | 0.99
DNAJC5 (DnaJ heat shock protein family (Hsp40) member C5) | 1.27
RBL2 (RB transcriptional corepressor like 2) | 0.88
CTU2 (cytosolic thiouridylase subunit 2) | 1.31
DHRS13 (dehydrogenase/reductase 13) | 0.96
USP8 (ubiquitin specific peptidase 8) | 1.13
B4GALT4 (beta-1,4-galactosyltransferase 4) | 0.89
TC2N (tandem C2 domains, nuclear) | 0.94
VPS35 (VPS35 retromer complex component) | 0.72
OSR1 (odd-skipped related transcription factor 1) | 1.13
STKLD1 (serine/threonine kinase like domain containing 1) | 0.9
KIAA0513 | 0.82
RADX (RPA1 related single stranded DNA binding protein, X-linked) | 0.91
GLP2R (glucagon like peptide 2 receptor) | 1.4
CPSF6 (cleavage and polyadenylation specific factor 6) | 1.23
TBATA (thymus, brain and testes associated) | 1
YWHAZ | 0.65
MC3R (melanocortin 3 receptor) | 2.15
SPATA31E1 (SPATA31 subfamily E member 1) | 1.06
ARHGEF9 (Cdc42 guanine nucleotide exchange factor 9) | 1.09
ITM2C (integral membrane protein 2C) | 1.08
YIF1B | 0.81
MRPS14 (mitochondrial ribosomal protein S14) | 1.16
ALG9 (ALG9 alpha-1,2-mannosyltransferase) | 0.96
ANKRD13D (ankyrin repeat domain 13D) | 1.18
CEP43 (centrosomal protein 43) | 1.16
OR2T3 (olfactory receptor family 2 subfamily T member 3) | 1.14
SMU1 (SMU1 DNA replication regulator and spliceosomal factor) | 0.67
HCAR2 (hydroxycarboxylic acid receptor 2) | 0.68
AREG (amphiregulin) | 1.07

11 of these entries, set out differently.
EI24 (EI24 autophagy associated transmembrane protein)
- CDH1-null / parental viability ratio: 1.45

ZFP69B (ZFP69 zinc finger protein B)
- CDH1-null / parental viability ratio: 1.06

SYVN1 (synoviolin 1)
- CDH1-null / parental viability ratio: 0.96

SLC18A3
- CDH1-null / parental viability ratio: 0.89

CMPK2 (cytidine/uridine monophosphate kinase 2)
- CDH1-null / parental viability ratio: 0.86

NRBP2 (nuclear receptor binding protein 2)
- CDH1-null / parental viability ratio: 0.92

CBARP (CACN subunit beta associated regulatory protein)
- CDH1-null / parental viability ratio: 1.2

PIKFYVE (phosphoinositide kinase, FYVE-type zinc finger containing)
- CDH1-null / parental viability ratio: 0.87

PGLS (6-phosphogluconolactonase)
- CDH1-null / parental viability ratio: 1.37

ANKS1A (ankyrin repeat and sterile alpha motif domain containing 1A)
- CDH1-null / parental viability ratio: 1.24

P2RX6 (purinergic receptor P2X 6)
- CDH1-null / parental viability ratio: 1.29
